Patent publication US4956389A, “Compounds having calcium blocking activity” (priority 1982, dated 1990)

Experiments:
[1] = tested on: synaptosomes of the brain of rats; test: Inhibition of the Ca2+-uptake in synaptosomes of the brain of rats; type: biochemical, rat; conditions: 250 μM; 45CaCl2 1 mM; control 80 ± 7
Description: The synaptosomes have been prepared from an homogenate of the brain of rats by centrifugation in the gradient of Filcoll at 23,500 rpm for a period of 30 minutes and diluted to 1.5 mg/cc in the medium constituted by:
The substance YS 035 and nifedipine and papaverine, by way of comparison, have been added to the medium at a final concentration of 250 μM. After 15 minutes of preincubation, ^45 CaCl2, final concentration 1 mM (0.2μCi/cc is added to the medium).
The first determination has been carried out two minutes after the addition. The concentrations which have been found have been set as values at 0 time. The other controls have been carried out after 5 minutes, 10 minutes and 15 minutes. After each period, the reaction has been stopped by centrifugation and the radioactivity has been determined in the supernatant as well as in the pellet. The latter had been denatured previously with PCA, neutralized and subsequently centrifuged.
The results illustrated in the following Table 1 are expressed as the quantity of calcium transferred per mg of protein after the maximum period of incubation of 15 minutes.

[2] = tested on: mitochondria of liver of rats; test: Study on the Ca2+-efflux in mitochondria of liver of rats; type: biochemical, rat; conditions: 250 μM
From the text: The mitochondria of liver of rats prepared as in the preceding experiment were "charged" with Ca and subsequently, taken in a medium deprived of this ion. In the presence of an uncoupling agent or "Ruthenium Red", there is a flow of Ca^2+ ion from the mitochondria into the medium.
The results reported in Table 4 are expressed as the quantity of Ca transferred from the mitochondria per mg of protein per minute.

COC(=O)C1=C(C)NC(C)=C(C(=O)OC)C1c1ccccc1[N+](=O)[O-] [Nifedipine, reference compound]
Ca2+-uptake [1]: 42 ± 5 n g ions/mg prot/15 min | uncoupling action (in words) [2]: an uncoupling action of nifedipine has been noted | Ca2+-efflux induced by Ruthenium red ([2]; control 0.7): 2.2 n g ions/min. mg/prot | Ca2+-efflux induced by uncoupling agent ([2]; control 8.3): 8.5 n g ions/min. mg/prot | Ca2+-efflux ([2]; no inducer, control 0.0): 3.8 n g ions/min. mg/prot
